Assay results reported in paper doi:10.1101/2023.03.09.531943.
Numbering of substitutions follows the chain as printed. Read-outs that look alike come from different tables or passages of the source. These are yes or no findings as the source states them, for the method shown. Some results given as binding are weak or reduced against the parent protein; the word gives no strength.

The chains behind the UniProt entries cited, without tags or fusion partners. Residues count along the entry.
UniProt Q8VZ50: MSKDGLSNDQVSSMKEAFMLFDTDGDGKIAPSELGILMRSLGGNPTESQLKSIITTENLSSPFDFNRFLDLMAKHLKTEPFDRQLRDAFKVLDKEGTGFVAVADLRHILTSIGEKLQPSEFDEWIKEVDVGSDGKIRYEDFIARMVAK
UniProt Q9M199, residues 158-517: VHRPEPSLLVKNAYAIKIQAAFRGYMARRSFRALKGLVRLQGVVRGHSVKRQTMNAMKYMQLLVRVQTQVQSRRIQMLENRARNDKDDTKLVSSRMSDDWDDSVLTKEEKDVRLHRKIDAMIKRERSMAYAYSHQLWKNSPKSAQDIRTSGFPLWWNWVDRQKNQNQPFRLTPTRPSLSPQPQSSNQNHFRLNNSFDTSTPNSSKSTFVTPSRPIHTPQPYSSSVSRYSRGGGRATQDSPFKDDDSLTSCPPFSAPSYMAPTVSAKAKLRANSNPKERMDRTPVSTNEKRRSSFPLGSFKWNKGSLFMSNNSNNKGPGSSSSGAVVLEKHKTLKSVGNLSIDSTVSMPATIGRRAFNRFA
UniProt F4JIU4, residues 763-1134: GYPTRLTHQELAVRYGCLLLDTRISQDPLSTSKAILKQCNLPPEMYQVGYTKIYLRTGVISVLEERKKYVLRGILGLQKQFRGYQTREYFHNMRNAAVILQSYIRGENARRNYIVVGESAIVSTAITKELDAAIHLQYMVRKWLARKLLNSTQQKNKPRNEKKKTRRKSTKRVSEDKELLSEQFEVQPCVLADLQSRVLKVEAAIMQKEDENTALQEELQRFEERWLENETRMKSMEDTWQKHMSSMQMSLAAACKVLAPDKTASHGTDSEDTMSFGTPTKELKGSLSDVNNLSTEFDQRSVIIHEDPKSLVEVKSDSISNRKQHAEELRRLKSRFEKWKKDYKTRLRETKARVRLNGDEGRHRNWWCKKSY
UniProt Q8LPG9, residues 307-668: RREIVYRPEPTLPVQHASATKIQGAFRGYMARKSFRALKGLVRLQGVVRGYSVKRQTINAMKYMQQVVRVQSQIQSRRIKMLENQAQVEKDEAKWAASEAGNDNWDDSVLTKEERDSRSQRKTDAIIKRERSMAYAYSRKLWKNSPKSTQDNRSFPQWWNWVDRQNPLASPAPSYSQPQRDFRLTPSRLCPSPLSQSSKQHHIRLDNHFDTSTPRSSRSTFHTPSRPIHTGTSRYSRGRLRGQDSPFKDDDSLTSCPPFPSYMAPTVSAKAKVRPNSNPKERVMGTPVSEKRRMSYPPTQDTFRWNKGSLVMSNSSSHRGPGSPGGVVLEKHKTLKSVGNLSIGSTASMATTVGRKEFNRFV
UniProt Q9LK76, residues 98-389: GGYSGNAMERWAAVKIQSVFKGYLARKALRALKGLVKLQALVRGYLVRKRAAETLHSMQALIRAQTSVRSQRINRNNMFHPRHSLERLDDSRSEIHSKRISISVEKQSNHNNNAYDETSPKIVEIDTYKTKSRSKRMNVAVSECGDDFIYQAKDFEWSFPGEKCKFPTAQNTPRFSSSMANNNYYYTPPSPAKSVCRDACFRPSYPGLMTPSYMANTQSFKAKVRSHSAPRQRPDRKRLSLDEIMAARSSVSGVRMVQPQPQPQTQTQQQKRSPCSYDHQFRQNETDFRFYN
UniProt Q9FYG2, residues 755-1016: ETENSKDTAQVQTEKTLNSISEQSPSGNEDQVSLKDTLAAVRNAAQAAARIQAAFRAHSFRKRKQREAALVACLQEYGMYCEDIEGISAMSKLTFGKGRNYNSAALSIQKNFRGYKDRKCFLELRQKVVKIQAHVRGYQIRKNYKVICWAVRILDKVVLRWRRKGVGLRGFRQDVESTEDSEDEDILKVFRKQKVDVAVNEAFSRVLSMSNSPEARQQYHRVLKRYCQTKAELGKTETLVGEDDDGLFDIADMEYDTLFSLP

Legend:
Experiment in all cases: two-hybrid
[1] = target: T1, CML13, yeast two-hybrid bait (pGBKT7-CML13) (Arabidopsis thaliana) (UniProt Q94AZ4)
T1 sequence: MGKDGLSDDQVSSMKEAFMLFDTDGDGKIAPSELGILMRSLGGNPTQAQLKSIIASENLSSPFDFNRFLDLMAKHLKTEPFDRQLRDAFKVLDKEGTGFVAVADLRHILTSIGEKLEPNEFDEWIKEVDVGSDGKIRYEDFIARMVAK

[2] = target: T1, CML13, yeast two-hybrid bait (pGBKT7-CML13) (Arabidopsis thaliana); remark: listed apart in the source
[3] = target: T2, CML14, yeast two-hybrid bait (pGBKT7-CML14) (Arabidopsis thaliana) (UniProt Q8VZ50)
T2 sequence: T1 sequence with G2S, D8N, Q47E, A48S, A55T, S56T, E117Q, N119S

Measured: binding

CAMTA6 (AA# 660-845), yeast two-hybrid prey (from UniProt Q9LSP8-3 660-845) (domain or fragment)
binds: all assays above

IQD13 (AA# 158-517), yeast two-hybrid prey (from UniProt Q9M199 158-517) (domain or fragment)
binds: all assays above

myosin VIII-B (AA# 763-1135), yeast two-hybrid prey (from UniProt F4JIU4 763-1134) (domain or fragment)
binds: all assays above

IQD14 (AA# 307-668), yeast two-hybrid prey (from UniProt Q8LPG9 307-668) (domain or fragment)
binds: all assays above

IQD26 (AA# 98-389), yeast two-hybrid prey (from UniProt Q9LK76 98-389) (domain or fragment)
binds: all assays above

CAMTA4 (AA# 755-1016), yeast two-hybrid prey (from UniProt Q9FYG2 755-1016) (domain or fragment)
binds: all assays above
